Here are results for 28 targets from the supplement of paper PMC12819154, “High-throughput peptide-centric local stability assay extends protein–ligand identification to membrane proteins, tissues and bacteria” (Nature Structural & Molecular Biology, 2025).

Amino acid sequences for entries named in this document (tags omitted). A change or cut given only in a name is not applied to a line headed by its entry.
UniProt P30999: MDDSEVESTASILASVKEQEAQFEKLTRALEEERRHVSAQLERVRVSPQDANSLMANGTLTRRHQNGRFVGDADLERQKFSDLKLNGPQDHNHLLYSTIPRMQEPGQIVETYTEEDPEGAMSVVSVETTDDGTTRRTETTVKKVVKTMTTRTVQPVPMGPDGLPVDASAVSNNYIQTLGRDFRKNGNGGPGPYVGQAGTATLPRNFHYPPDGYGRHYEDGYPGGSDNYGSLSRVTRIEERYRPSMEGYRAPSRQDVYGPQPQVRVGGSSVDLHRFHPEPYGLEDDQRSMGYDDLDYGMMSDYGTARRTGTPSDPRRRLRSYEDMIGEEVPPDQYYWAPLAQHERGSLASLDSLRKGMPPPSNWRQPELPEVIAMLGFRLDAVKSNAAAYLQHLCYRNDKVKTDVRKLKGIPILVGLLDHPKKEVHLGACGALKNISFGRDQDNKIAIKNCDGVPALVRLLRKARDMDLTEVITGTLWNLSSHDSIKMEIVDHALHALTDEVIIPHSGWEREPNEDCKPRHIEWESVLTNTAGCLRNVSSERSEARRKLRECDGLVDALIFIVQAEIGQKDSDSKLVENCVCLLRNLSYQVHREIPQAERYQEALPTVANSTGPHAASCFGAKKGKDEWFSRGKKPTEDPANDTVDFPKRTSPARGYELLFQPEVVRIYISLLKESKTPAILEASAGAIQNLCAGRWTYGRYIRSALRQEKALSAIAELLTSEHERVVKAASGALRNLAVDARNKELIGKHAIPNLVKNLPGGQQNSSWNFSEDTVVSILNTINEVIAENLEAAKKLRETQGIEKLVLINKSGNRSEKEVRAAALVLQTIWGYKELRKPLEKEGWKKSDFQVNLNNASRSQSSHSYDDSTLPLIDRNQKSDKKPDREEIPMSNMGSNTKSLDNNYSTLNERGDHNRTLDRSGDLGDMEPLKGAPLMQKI
UniProt P16882: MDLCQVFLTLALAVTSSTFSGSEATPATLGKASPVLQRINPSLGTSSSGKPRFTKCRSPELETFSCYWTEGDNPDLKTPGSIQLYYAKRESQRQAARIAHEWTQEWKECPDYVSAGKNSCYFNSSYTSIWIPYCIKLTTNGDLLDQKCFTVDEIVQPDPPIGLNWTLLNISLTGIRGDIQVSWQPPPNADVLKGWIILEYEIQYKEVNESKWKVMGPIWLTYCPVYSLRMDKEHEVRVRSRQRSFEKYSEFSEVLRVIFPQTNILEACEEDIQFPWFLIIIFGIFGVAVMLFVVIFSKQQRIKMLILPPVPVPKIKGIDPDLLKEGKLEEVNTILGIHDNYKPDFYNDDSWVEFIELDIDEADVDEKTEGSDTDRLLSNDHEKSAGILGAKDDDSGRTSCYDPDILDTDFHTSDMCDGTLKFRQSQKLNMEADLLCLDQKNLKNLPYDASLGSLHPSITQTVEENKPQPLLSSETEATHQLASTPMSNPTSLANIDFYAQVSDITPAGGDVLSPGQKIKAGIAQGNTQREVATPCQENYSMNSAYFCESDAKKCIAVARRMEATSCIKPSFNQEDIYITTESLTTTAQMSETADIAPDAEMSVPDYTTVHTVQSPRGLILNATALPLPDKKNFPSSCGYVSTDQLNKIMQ
UniProt P28741, whole entry: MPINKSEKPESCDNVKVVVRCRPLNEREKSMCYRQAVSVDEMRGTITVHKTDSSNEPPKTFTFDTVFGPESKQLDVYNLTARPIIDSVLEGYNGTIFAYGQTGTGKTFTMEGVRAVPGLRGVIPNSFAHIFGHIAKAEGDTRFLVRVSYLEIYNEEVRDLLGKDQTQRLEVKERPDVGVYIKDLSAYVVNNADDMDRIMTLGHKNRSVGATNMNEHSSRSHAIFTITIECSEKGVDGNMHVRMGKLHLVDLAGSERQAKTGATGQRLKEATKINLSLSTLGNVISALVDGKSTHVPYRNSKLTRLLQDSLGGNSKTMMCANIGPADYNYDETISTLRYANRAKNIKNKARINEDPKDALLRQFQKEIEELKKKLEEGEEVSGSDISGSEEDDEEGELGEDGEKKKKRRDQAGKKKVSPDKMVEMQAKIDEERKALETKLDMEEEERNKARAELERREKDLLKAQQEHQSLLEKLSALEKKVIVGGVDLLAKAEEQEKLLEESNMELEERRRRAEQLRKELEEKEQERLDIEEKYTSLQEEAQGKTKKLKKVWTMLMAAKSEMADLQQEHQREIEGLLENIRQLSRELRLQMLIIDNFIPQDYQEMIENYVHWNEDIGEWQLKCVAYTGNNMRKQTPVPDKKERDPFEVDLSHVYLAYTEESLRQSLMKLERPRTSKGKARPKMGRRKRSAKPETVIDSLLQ
UniProt P16460: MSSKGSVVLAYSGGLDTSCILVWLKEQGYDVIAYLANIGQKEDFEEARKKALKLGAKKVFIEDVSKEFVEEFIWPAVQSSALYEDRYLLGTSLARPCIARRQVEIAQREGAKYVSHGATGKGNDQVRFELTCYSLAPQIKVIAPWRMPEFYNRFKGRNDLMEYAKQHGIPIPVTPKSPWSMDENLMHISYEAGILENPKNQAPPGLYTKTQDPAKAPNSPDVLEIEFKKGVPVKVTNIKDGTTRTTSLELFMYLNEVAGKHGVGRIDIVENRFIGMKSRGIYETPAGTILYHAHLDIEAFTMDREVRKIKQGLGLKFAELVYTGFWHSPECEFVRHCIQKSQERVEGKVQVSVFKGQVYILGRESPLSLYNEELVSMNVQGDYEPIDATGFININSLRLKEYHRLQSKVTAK
UniProt P35330: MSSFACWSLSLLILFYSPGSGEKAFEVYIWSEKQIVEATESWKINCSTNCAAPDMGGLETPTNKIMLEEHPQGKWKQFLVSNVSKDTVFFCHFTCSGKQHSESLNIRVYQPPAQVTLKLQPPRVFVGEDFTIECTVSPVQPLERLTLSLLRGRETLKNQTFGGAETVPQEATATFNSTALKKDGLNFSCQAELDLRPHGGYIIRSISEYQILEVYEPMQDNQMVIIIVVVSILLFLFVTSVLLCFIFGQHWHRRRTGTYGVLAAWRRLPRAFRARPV
UniProt P31809: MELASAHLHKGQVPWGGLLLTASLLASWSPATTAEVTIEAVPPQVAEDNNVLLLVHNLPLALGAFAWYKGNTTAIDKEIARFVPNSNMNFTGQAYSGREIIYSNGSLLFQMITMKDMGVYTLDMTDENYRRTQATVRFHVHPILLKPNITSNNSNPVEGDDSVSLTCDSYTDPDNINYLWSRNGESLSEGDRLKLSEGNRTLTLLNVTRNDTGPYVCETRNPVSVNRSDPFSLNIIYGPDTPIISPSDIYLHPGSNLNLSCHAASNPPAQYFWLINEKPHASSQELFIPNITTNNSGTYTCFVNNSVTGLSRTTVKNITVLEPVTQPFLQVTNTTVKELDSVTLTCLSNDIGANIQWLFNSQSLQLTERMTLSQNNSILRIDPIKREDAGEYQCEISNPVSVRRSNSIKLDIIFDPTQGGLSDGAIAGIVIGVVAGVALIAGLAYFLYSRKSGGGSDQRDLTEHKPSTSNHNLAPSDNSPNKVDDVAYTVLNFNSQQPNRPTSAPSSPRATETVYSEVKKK
UniProt P33766: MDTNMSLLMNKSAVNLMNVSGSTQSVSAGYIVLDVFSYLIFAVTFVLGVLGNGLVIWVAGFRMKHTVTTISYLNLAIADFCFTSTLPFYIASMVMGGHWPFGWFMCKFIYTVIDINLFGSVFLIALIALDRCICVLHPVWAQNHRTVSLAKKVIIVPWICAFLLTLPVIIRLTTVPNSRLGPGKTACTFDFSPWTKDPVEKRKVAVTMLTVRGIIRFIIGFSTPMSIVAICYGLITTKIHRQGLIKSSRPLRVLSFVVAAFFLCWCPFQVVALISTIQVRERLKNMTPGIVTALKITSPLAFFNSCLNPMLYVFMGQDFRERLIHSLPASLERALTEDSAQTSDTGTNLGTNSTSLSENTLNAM
UniProt P28867: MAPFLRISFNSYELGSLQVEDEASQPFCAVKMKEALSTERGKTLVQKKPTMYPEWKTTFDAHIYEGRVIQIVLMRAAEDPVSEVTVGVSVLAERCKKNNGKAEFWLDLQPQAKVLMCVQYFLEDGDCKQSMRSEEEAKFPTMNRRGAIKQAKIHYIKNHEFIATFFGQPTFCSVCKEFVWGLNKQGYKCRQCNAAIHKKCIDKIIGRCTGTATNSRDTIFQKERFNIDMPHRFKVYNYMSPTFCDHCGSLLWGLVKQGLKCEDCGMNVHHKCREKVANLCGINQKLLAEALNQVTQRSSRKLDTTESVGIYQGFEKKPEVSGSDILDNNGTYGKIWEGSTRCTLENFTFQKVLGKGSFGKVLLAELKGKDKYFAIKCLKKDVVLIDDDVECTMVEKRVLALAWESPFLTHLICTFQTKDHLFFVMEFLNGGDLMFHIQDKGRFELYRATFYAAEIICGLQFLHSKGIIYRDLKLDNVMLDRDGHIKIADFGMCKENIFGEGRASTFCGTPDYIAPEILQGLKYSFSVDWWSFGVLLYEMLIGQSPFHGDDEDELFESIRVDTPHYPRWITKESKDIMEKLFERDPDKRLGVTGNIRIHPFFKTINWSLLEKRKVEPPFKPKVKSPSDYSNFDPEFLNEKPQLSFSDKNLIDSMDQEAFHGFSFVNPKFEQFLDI
UniProt P31725: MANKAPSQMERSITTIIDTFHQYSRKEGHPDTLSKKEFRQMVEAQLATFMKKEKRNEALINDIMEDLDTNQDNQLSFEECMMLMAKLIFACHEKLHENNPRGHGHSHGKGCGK
UniProt P25916: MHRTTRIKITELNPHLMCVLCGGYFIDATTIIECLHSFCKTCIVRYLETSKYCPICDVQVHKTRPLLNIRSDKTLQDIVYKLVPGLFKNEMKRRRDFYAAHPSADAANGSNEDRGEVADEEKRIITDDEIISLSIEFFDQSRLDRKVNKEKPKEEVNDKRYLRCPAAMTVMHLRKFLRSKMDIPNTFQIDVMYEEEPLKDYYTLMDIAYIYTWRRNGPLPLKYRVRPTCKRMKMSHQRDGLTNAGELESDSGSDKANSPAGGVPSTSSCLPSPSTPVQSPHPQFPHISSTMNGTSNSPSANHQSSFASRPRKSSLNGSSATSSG
UniProt P19001: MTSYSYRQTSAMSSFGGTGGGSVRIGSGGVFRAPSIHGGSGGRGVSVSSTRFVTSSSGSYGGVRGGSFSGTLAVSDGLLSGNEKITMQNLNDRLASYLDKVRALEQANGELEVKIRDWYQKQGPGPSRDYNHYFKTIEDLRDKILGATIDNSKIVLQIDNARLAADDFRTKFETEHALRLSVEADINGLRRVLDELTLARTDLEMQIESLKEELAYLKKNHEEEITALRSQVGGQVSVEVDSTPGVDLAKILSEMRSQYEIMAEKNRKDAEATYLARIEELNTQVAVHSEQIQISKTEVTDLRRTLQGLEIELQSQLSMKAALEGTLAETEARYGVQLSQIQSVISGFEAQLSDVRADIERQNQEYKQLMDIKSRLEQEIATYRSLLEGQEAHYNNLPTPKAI
UniProt P26043, whole entry: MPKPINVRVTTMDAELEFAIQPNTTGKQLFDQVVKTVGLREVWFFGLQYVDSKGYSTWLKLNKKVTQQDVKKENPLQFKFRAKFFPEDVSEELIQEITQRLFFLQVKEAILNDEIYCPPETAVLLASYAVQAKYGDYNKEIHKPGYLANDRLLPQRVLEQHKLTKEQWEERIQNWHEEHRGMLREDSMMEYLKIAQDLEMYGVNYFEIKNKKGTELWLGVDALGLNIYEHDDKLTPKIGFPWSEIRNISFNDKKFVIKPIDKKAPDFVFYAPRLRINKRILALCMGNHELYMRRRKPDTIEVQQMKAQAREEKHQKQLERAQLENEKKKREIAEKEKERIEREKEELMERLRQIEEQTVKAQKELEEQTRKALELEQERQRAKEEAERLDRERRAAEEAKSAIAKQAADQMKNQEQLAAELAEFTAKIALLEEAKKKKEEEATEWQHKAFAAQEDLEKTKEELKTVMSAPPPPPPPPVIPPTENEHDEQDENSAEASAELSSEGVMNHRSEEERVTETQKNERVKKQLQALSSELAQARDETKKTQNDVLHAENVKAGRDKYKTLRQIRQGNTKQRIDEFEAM
UniProt P28704: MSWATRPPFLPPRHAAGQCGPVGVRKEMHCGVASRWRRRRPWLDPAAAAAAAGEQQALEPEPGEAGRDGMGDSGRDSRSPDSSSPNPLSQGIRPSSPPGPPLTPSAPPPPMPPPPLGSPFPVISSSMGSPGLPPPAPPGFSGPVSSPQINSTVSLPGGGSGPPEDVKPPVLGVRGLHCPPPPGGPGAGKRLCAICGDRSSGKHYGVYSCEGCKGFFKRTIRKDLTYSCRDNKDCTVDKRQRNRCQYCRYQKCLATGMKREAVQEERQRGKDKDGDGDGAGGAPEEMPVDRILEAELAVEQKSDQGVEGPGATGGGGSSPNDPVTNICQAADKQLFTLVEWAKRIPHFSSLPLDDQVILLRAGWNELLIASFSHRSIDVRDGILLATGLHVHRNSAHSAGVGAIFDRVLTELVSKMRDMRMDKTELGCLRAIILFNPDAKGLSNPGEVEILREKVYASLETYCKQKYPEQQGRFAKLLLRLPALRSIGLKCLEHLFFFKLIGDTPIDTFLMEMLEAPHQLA

This is one part of the list. Small differences around the control level are noise.

Compound in the test: CN[C@@H]1C[C@H]2O[C@@](C)([C@@H]1OC)n1c3ccccc3c3c4c(c5c6ccccc6n2c5c31)C(=O)NC4 [staurosporine]
As to the kind of experiment: log2 fold change of tryptic peptide abundance, ligand vs vehicle (limited proteolysis) (log2 ratio); higher = more trypsin-susceptible (destabilized). Particulars: ligand concentration: 20 uM; sample: mouse liver crude lysate; replicate design: treated separately.
For “UniProt P30999 (peptide sequence: SQSSHSYDDSTLPLIDRNQK, peptide start residue: 859)”, the log2 fold change is -0.235.

For the target “UniProt P16882 (peptide sequence: GLILNATALPLPDKK, peptide start residue: 617)”, the log2 fold change is -0.0859.

On to “UniProt P30204 (peptide sequence: TKEMTENQR, peptide start residue: 2)”, for which the log2 fold change worked out at 0.0902.

Regarding “UniProt P18581 (peptide sequence: NLSLPFILHEKTSEC, peptide start residue: 643)”, the log2 fold change is -0.19.

Take “UniProt P28741 (peptide sequence: GVIPNSFAHIFGHIAK, peptide start residue: 121)”: the log2 fold change is -0.184.

In the case of “UniProt P16406 (peptide sequence: TTYMEDGQIR, peptide start residue: 198)”, the log2 fold change is -0.514.

“UniProt P21981 (peptide sequence: SSPIYVGR, peptide start residue: 215)”: the log2 fold change was 0.217.

On to “UniProt P16460 (peptide sequence: FKGRNDLMEYAK, peptide start residue: 154)”, for which the log2 fold change is 0.151.

“UniProt P35330 (peptide sequence: TGTYGVLAAWR, peptide start residue: 256)”: the log2 fold change is 0.163.

On to “UniProt P21440 (peptide sequence: GNVTMDEIEK, peptide start residue: 492)”, for which the log2 fold change was -0.521.

In the case of “UniProt P31809 (peptide sequence: ATETVYSEVK, peptide start residue: 509)”, the log2 fold change is -0.0817.

As for “UniProt P33609 (peptide sequence: NEPLLTPIPLK, peptide start residue: 220)”, the log2 fold change was -0.623.

For “UniProt P34884 (peptide sequence: LLCGLLSDR, peptide start residue: 79)”, the log2 fold change is -0.166.

With “UniProt P19246 (peptide sequence: IPSISTHIK, peptide start residue: 427)”, the log2 fold change was 0.444.

“UniProt P33766 (peptide sequence: LIHSLPASLER, peptide start residue: 323)”: the log2 fold change stood at 0.092.

As to “UniProt P17426 (peptide sequence: ANHPMDAEVTK, peptide start residue: 895)”, the log2 fold change is -0.888.

As to “UniProt P28867 (peptide sequence: TTFDAHIYEGR, peptide start residue: 57)”, the log2 fold change came to 0.712.

Turning to “UniProt P20067 (peptide sequence: VEILQHVIDYIR, peptide start residue: 85)”, the log2 fold change came out at 0.421.

On to “UniProt P30545 (peptide sequence: EKEEGETPEDPEAR, peptide start residue: 261)”, for which the log2 fold change was -0.327.

Turning to “UniProt P31725 (peptide sequence: SITTIIDTFHQYSR, peptide start residue: 12)”, the log2 fold change was 0.127.

Regarding “UniProt P25916 (peptide sequence: CPAAMTVMHLR, peptide start residue: 164)”, the log2 fold change was determined as 0.443.

With “UniProt P19001 (peptide sequence: SQYEIMAEK, peptide start residue: 257)”, the log2 fold change was -0.164.

For “UniProt P28033 (peptide sequence: VLELTAENER, peptide start residue: 254)”, the log2 fold change was -0.169.

On to “UniProt P23927 (peptide sequence: RPFFPFHSPSR, peptide start residue: 12)”, for which the log2 fold change was -0.262.

Consider “UniProt P26043 (peptide sequence: ELEEQTR, peptide start residue: 364)”, for which the log2 fold change is -0.193.

As to “UniProt P28704 (peptide sequence: GKDKDGDGDGAGGAPEEMPVDR, peptide start residue: 269)”, the log2 fold change amounted to 1.01.

Take “UniProt P29391 (peptide sequence: MGNHLTNLR, peptide start residue: 145)”: the log2 fold change is -0.227.

With “UniProt P29754 (peptide sequence: ALNSSTEDGIKR, peptide start residue: 2)”, the log2 fold change turned out to be 0.291.
